A short description of the assay: IkB Signaling. As to conditions: ABC-DLBCL IkBa-CBG/CBR dual luciferase ratio (green luciferase fused to IkBa over red control in OCI-Ly3 lymphoma cells), 4 h. Summed up: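 Curves were fitted separately to fusion (green), unfused (red) and ratio luminescence, then classed by r2, magnitude and activity. Cells: OCI-Ly3, 4 h compound plus doxycycline at 37C; 10 uM MG-132 defined full response.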
Where [1] appears, read: measured here: control luc red channel unless noted.
[2] abbreviates: measured here: IkB-luc green channel.
The mark [3] stands for this setting: measured here: control luc red channel.

The AC50 is the concentration at which the activity in the assay is half-maximal.

The list shows a part of the results. The main result of the screen is listed elsewhere. These columns were measured beside it and carry no call. The list favours compounds with an active or inconclusive main result. The note in brackets gives the kind of curve behind each potency; many fits are weak.

Consider `CC(C)c1ccc(Cc2cn3cc(-c4cc5ccccc5oc4=O)nc3s2)cc1`, for which, under setting [1], the half-maximal activity concentration (AC50) is 794 nM [rising, full curve] [measured here: IkB-luc green channel].

Turning to `COc1ccc(OC)c(C2=NS(=O)(=O)N(C)C(C(=O)Nc3ccc(C(C)=O)cc3)=C2)c1`, the AC50 under setting [1] is 10 µM [falling, partial curve].

As to `Cc1cccc(C)c1NC(=O)NCCCN1CCN(c2ccccc2)CC1`, under setting [1], the AC50 is 39.8 µM [falling, single point].

For `CNC(=O)C1CCC(Cn2c(=O)c3sccc3n(CC(=O)NCc3ccc(C)cc3)c2=O)CC1` (stereo unspecified), the AC50 under setting [1] is 7.94 µM [falling, full curve, poor fit].

For `Cc1ccc2cc3cc(C(=O)N4CC(C)CC(C)C4)oc3nc2c1` (stereo unspecified), the AC50 under setting [1] was 20 µM [falling, single point].

Consider `Cc1ccc(C)c(NC(=O)CCCn2c(C)c3cnn(-c4ccccc4)c(=O)c3c2C)c1`, for which the half-maximal activity concentration (AC50) under setting [1] was 10 µM [falling, partial curve].

For the molecule `Cc1ccccc1C(=O)Nc1sc2c(c1C(=O)O)CCC(C(C)(C)C)C2` (stereo unspecified), under setting [1], the AC50 is 10 µM [falling, partial curve].

For the molecule `O=C(CSc1nc2c([nH]c3ccccc32)c(=O)n1-c1ccccc1)N1CCCc2ccccc21`, under setting [1], the AC50 was 31.6 µM [rising, partial curve].

Regarding `COc1ccc(NC(=O)c2ccco2)cc1NC(=O)c1ccc(C)cc1`, under setting [1], the AC50 is 0.501 µM [rising, partial curve].

As for `Cc1cccc(OCc2nc(C#N)c(NCc3ccc4c(c3)OCO4)o2)c1`, the AC50 under setting [2] is 31.6 µM [falling, single point] and the AC50 under setting [3] was 25.1 µM [falling, partial curve].

For `Cc1ccc(NC(=O)c2cc(S(=O)(=O)NC3CCCCCC3)ccc2F)cc1F`, the AC50 under setting [1] is 15.8 µM [falling, partial curve].

With `COc1ccc2[nH]cc(CCN=C(NC(=O)c3cccc(Cl)c3)Nc3nc(C)cc(C)n3)c2c1`, under setting [1], the AC50 was 20 µM [falling, partial curve].

`CC(NC(=O)COc1ccccc1)C(=O)OCC(=O)c1cc2ccccc2o1` (stereo unspecified): under setting [1], the AC50 is 12.6 µM [falling, partial curve].

On to `O=C(CSc1nc2c([nH]c3ccccc32)c(=O)n1-c1ccccc1)NCc1ccc(F)cc1`, for which the AC50 under setting [1] was 39.8 µM [falling, single point].

Regarding `CN1CCN(c2oc(COc3ccc(-c4ccccc4)cc3)nc2C#N)CC1`, under setting [1], the AC50 was 20 µM [falling, partial curve].

Consider `O=C(CN1C(=O)C2(SCC(=O)N2c2ccccc2)c2ccccc21)Nc1ccccc1C(F)(F)F` (stereo unspecified), for which, under setting [1], the AC50 is 39.8 µM [falling, single point].

In the case of `O=S(=O)(c1cccc(-c2nnc(SC(F)F)n2-c2ccccc2)c1)N1CCCCC1`, the AC50 under setting [1] was 20 µM [falling, single point].

As to `COc1ccc(C(=O)c2cnc3ccc(C)cc3c2S(=O)(=O)c2ccccc2)cc1`, the AC50 under setting [1] was 1.58 µM [falling, full curve].

In the case of `Cn1cnnc1SCC(=O)c1cc2ccccc2oc1=O`, under setting [1], the AC50 is 12.6 µM [falling, partial curve].

For the molecule `Cc1ccc(CN2C(=O)C(O)(CC(=O)c3ccc(C)cc3)c3ccccc32)cc1` (stereo unspecified), the AC50 under setting [2] is 15.8 µM [rising, partial curve] and the AC50 under setting [3] is 25.1 µM [falling, partial curve].

Regarding `CCN(C(=O)CCS(=O)(=O)c1ccc2c(c1)oc(=O)n2C)c1ccc(OC)cc1`, the AC50 under setting [1] was 20 µM [falling, partial curve, poor fit].

`Cc1[nH]c2ccc(C(=O)Nc3ccc(F)cc3)cc2c1C`: under setting [1], the AC50 is 39.8 µM [falling, single point].

In the case of `Cc1ccccc1CN1C(=O)c2ccccc2S(=O)c2ccc(C(=O)NCc3ccco3)cc21` (stereo unspecified), the AC50 under setting [1] was 20 µM [falling, single point].

As for `Cc1ccc(NC(=O)CSc2nc3c(c(=O)[nH]2)CCC3)cc1Cl`, the AC50 under setting [1] was 10 µM [falling, partial curve].

On to `COc1ccc(NC(=O)c2oc3ccccc3c2NC(=O)c2ccco2)cc1`, for which the AC50 under setting [1] was 5.01 µM [falling, partial curve].

Take `Cc1nc2cccc(C(=O)NCc3ccccc3)c2o1`: the AC50 under setting [1] was 1.26 µM [falling, full curve].

Consider `CCn1c(COc2cccc(C)c2)nc2ccccc21`, for which the AC50 under setting [1] is 1.58 µM [rising, partial curve].

In the case of `O=S(=O)(c1ccc(Br)cc1)c1nc(-c2cccs2)oc1SCc1ccc(F)cc1`, under setting [1], the AC50 was 6.31 µM [falling, single point].

For `Cc1ccc(-c2nc(CN(C)C)cc(CN(C)C)c2O)cc1`, under setting [1], the AC50 is 10 µM [falling, partial curve].

For `O=C(CC1Oc2ccccc2NC1=O)NCCCN1CCCC1=O` (stereo unspecified), the AC50 under setting [1] was 10 µM [falling, partial curve].

As to `Cc1ccc(C)c(N2CCN(C(=O)C3CCN(C(=O)c4cc5sccc5n4C)CC3)CC2)c1`, under setting [1], the AC50 is 20 µM [falling, partial curve].

Take `O=C(c1ccc2c(c1)N(Cc1ccc(Cl)cc1)C(=O)c1ccccc1S2(=O)=O)N1CCC(Cc2ccccc2)CC1`: the AC50 under setting [1] was 10 µM [falling, partial curve].

Regarding `O=C(c1ccc2c(c1)N(Cc1ccc(F)cc1)C(=O)c1ccccc1S2(=O)=O)N1CCCCCC1`, the AC50 under setting [1] is 15.8 µM [falling, partial curve].

As to `CCOc1ccc(NC(=O)CSC2=Nc3ccccc3C3=NC(CC(=O)NCc4ccccc4OC)C(=O)N23)cc1` (stereo unspecified), the AC50 under setting [1] was 6.31 µM [rising, partial curve].

In the case of `CCn1c(=O)c(C(=O)Nc2cccnc2)c(O)c2ccccc21`, under setting [1], the AC50 is 1.26 µM [falling, full curve, poor fit].

For the molecule `Cc1oc(-c2ccccc2F)nc1CS(=O)(=O)CC(=O)N1CCN(c2ccc(Cl)cc2)CC1`, the AC50 under setting [1] was 25.1 µM [falling, partial curve].

Take `COc1ccc(CCn2c(=O)c3ccccc3n(CC(=O)Nc3cccc(C)c3)c2=O)cc1OC`: the AC50 under setting [1] was 12.6 µM [falling, partial curve].

`CCN1c2ccccc2NC2C1C(C(C)=O)C(=O)N2c1ccc(Cl)cc1` (stereo unspecified): under setting [1], the AC50 is 6.31 µM [falling, partial curve].

Regarding `Cc1ccc(C)c(S(=O)(=O)c2cn(C)c3cc(F)c(F)cc3c2=O)c1`, the AC50 under setting [1] was 10 µM [falling, partial curve].

The values are drawn from PubChem BioAssay AID445 (National Center for Advancing Translational Sciences (NCATS), 2006).
